This is one part of the list. These are raw signals, not scaled to a control.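 First-pass screen: polymyxin B was added at a level that permeabilizes the Salmonella outer membrane while sparing the inner membrane. DMSO wells, with and without polymyxin B, defined maximum growth. Because plates differed from one another, each plate's data were ranked separately and the compounds with the lowest OD600 were carried forward as hits.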

The subject of this test is Salmonella enterica serovar Typhimurium SL1344. Nature of the test: bacterial growth OD600 after 18 h with compound and polymyxin B; higher = more bacterial growth (less inhibition). Particulars: 50 µM, Mueller-Hinton broth.

Turning to `CCC1CN(Cc2ccc(OC)c(OC)c2)Cc2cc(OC)ccc2O1` (configuration not stated), the “bacterial growth OD600” value (polymyxin B 0.75 µg/mL) stood at 0.72.

For the molecule `Cc1cccn2c(CN3CCN(C(C)C)CC3)c(C(=O)N(C)CCc3ccccc3)nc12`, the “bacterial growth OD600” value (polymyxin B 1 µg/mL) was found to be 1.39.

`COCCN1C(=O)NC(Cc2ccc(F)cc2)(C2CCN(C(=O)c3sccc3Cl)CC2)C1=O` (configuration not stated): the “bacterial growth OD600” value (polymyxin B 0.75 µg/mL) stood at 0.857.

Take `OC1CCN(c2nc3nonc3nc2N2CCCCCC2)CC1`: for the setting “polymyxin B 0.75 µg/mL”, the “bacterial growth OD600” value was found to be 0.819. Still for that read-out and setting: the figure for `c1ccc(Cc2noc(-c3ccc(NC4CCSC4)nc3)n2)cc1` (configuration not stated) is 0.001; for `COc1cc(-c2cc(C)c3c(OC)ccc(OC)c3n2)cc2c1OCCN(C(C)=O)C2` it is 0.888. Consider `CCCN(CC1CCCO1)C(=O)c1cc(COc2cccc3cccnc23)on1` (configuration not stated), for which the “bacterial growth OD600” value (polymyxin B 1 µg/mL) was 0.934. Still for that read-out and setting: the result for `O=C(CCC(F)(F)F)NC1CC(=O)N(Cc2cccc3ccccc23)C1` (configuration not stated) reads 0.833. Take `Cc1cccc(CNC(=O)C2CC23CCN(C(=O)C(C)Oc2cccc(Cl)c2)CC3)n1` (configuration not stated): under “polymyxin B 0.75 µg/mL”, the “bacterial growth OD600” value amounted to 0.774. Take `CSc1ccccc1OCc1cc(C(=O)NCc2ccc(C)s2)no1`: the “bacterial growth OD600” value (polymyxin B 1 µg/mL) came out at 0.88. Still for that read-out and setting: the result for `CCCCNC(=O)c1coc(COc2cccc3cnccc23)n1` reads 0.848. Regarding `Cc1occc1C(=O)Nc1nc2c(s1)C(=O)CC(C(=O)NCC1(N3CCOCC3)CCCC1)C2` (configuration not stated), under “polymyxin B 0.75 µg/mL”, the “bacterial growth OD600” value worked out at 0.798. On the same count and under the same terms, the result for `COc1ccc(CN2CCOc3ccc(CN4CCOCC4)cc3C2)cc1` reads 0.88; that for `CSCC(=O)N1CCc2[nH]nc(-c3ccccc3F)c2C1`, 0.797; that for `Cn1c(-c2ccncc2)nc2cc(C(=O)NCC(C)(C)N3CCOCC3)cc(NC(=O)C3CCC3)c21`, 0.818. Consider `Cc1ccc(OCc2cc(C(=O)N3CCCC3c3nc4cc(F)ccc4[nH]3)no2)cn1` (configuration not stated), for which the “bacterial growth OD600” value (polymyxin B 1 µg/mL) came out at 1.14. Consider `Cc1n[nH]c(C)c1CN(C)C(=O)CC(c1cccc(O)c1)c1ccccc1Cl` (configuration not stated), for which the “bacterial growth OD600” value (polymyxin B 1 µg/mL) was 0.832. For the molecule `CC(=O)c1ccc(C(=O)N2CCC(c3nc(-c4cccnc4)ncc3-c3ccccc3C)CC2)cc1`, the “bacterial growth OD600” value (polymyxin B 0.75 µg/mL) was determined as 0.597. Regarding `CN1CCC(Nc2ccc(-c3nc(-c4ccccc4F)no3)cn2)CC1`, for the setting “polymyxin B 1 µg/mL”, the “bacterial growth OD600” value came to 0.973. For the molecule `Cc1cc(CNC(=O)c2cnn(-c3nccc(-c4cc(C)sc4C)n3)c2C)on1`, for the setting “polymyxin B 0.75 µg/mL”, the “bacterial growth OD600” value stood at 0.969. Same read-out and setting: the result for `COCCCNc1ncnc2sc(C(=O)NCCC(C)C)c(C)c12` reads 0.885. On to `COc1cc(CNC(C)C)ccc1OCC(O)CN1CCSCC1` (configuration not stated), for which, for the setting “polymyxin B 1 µg/mL”, the “bacterial growth OD600” value was 1.09.

For `Cc1ccccc1CC(=O)N1CCC(C2(Cc3cccc(F)c3)NC(=O)N(CCN(C)C)C2=O)CC1` (configuration not stated), the “bacterial growth OD600” value (polymyxin B 0.75 µg/mL) was determined as 0.844. Still for that read-out and setting: the result for `CC(=O)N[C@@H]1c2ccccc2C2(CCN(Cc3cccc4nccnc34)CC2)[C@H]1OCc1ccccc1` reads 0.869. With `Cc1cc(C)c(CN2CCC(N3CCC(C(=O)NCC4CCCO4)CC3)CC2)cc1C` (configuration not stated), under “polymyxin B 1 µg/mL”, the “bacterial growth OD600” value is 0.818. Take `CC(C)(C)C(=O)N1CCC(C2CCN(Cc3cccnc3)CC2)C1` (configuration not stated): the “bacterial growth OD600” value (polymyxin B 0.75 µg/mL) amounted to 0.842. The same measure, in the same setting: the figure for `CC(C)c1nccn1Cc1cc(C(=O)NCCC2CCCCO2)n[nH]1` (configuration not stated) is 0.832. Regarding `CCc1csc(CNC(=O)c2ccc(N(C)C(C)C)nc2)n1`, the “bacterial growth OD600” value (polymyxin B 1 µg/mL) came out at 0.754. With `COc1cc(-c2ccc(C)s2)cc2c1OCCN(C1CCCC1)C2`, the “bacterial growth OD600” value (polymyxin B 0.75 µg/mL) came out at 0.747.

For `O=C(NC1CCCCC1)C1CCCN(C2CCN(Cc3ccccc3)CC2)C1` (configuration not stated), under “polymyxin B 0.75 µg/mL”, the “bacterial growth OD600” value is 0.885.

Consider `Cc1ccc(-c2n[nH]cc2CN2CCN(c3ccccn3)CC2)cc1C`, for which the “bacterial growth OD600” value (polymyxin B 1 µg/mL) amounted to 0.115. Take `O=C(NCCc1cccc2ccccc12)c1cc(CN2CCOCC2)on1`: where the note is “polymyxin B 1 µg/mL”, the “bacterial growth OD600” value stood at 1.1.

Values taken from the supplement of paper PMC12889115.
